Data: article PMC10866661
These are yes or no findings as the source states them, for the method shown. Binding seen in cells or lysates may run through a third protein. Some results given as binding are weak or reduced against the parent protein; the word gives no strength. Tags and fused reporters may be left off the sequences shown.

Molecular target: T1, FLAG-tagged COPA p.D243G (WD40 domain mutant) (human) (UniProt P53621)
T1 sequence: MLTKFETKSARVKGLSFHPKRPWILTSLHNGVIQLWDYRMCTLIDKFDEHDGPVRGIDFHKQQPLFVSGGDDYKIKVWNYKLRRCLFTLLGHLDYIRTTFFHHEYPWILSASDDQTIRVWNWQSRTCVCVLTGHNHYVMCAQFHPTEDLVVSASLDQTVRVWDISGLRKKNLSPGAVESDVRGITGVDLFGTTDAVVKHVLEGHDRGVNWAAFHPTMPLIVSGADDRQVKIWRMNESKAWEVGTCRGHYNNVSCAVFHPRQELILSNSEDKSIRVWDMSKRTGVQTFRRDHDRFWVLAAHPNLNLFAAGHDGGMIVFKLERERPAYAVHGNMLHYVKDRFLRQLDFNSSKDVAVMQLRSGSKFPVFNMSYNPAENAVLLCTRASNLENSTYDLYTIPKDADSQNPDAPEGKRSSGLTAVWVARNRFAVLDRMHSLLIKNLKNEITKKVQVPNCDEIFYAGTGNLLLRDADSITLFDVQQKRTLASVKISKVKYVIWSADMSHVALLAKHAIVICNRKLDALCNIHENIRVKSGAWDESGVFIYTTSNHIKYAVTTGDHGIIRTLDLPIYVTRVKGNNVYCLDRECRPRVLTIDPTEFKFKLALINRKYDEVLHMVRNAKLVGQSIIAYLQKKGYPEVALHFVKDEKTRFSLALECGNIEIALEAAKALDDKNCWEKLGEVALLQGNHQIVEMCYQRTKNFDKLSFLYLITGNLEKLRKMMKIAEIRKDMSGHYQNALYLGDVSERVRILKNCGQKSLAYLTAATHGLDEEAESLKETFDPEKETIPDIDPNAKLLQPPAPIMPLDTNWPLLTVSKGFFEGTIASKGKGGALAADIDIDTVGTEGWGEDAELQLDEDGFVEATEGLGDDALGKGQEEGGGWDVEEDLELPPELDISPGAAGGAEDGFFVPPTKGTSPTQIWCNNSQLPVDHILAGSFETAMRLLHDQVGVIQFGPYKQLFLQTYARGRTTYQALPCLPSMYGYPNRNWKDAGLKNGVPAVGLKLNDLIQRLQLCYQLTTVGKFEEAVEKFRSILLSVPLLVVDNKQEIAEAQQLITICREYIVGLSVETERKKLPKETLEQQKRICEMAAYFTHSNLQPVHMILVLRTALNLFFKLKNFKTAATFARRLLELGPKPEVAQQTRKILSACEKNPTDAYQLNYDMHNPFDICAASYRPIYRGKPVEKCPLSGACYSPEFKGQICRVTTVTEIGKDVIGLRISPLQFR
Assay: co-IP; HEK293T cells cotransfected with FLAG-tagged WT or mutant COPA, COPB2 and COPE; whole-cell extract 48 h after transfection incubated overnight with anti-DDK (FLAG) antibody, Protein G magnetic beads, washes with PBS 0.1% Tween-20; immunoblot of eluate and input for FLAG, COPB2 and COPE

binding: binds
B1: COPB2 (protein, UniProt P35606 1-906)
chain: MPLRLDIKRKLTARSDRVKSVDLHPTEPWMLASLYNGSVCVWNHETQTLVKTFEVCDLPVRAAKFVARKNWVVTGADDMQIRVFNYNTLERVHMFEAHSDYIRCIAVHPTQPFILTSSDDMLIKLWDWDKKWSCSQVFEGHTHYVMQIVINPKDNNQFASASLDRTIKVWQLGSSSPNFTLEGHEKGVNCIDYYSGGDKPYLISGADDRLVKIWDYQNKTCVQTLEGHAQNVSCASFHPELPIIITGSEDGTVRIWHSSTYRLESTLNYGMERVWCVASLRGSNNVALGYDEGSIIVKLGREEPAMSMDANGKIIWAKHSEVQQANLKAMGDAEIKDGERLPLAVKDMGSCEIYPQTIQHNPNGRFVVVCGDGEYIIYTAMALRNKSFGSAQEFAWAHDSSEYAIRESNSIVKIFKNFKEKKSFKPDFGAESIYGGFLLGVRSVNGLAFYDWDNTELIRRIEIQPKHIFWSDSGELVCIATEESFFILKYLSEKVLAAQETHEGVTEDGIEDAFEVLGEIQEIVKTGLWVGDCFIYTSSVNRLNYYVGGEIVTIAHLDRTMYLLGYIPKDNRLYLGDKELNIISYSLLVSVLEYQTAVMRRDFSMADKVLPTIPKEQRTRVAHFLEKQGFKQQALTVSTDPEHRFELALQLGELKIAYQLAVEAESEQKWKQLAELAISKCQFGLAQECLHHAQDYGGLLLLATASGNANMVNKLAEGAERDGKNNVAFMSYFLQGKVDACLELLIRTGRLPEAAFLARTYLPSQVSRVVKLWRENLSKVNQKAAESLADPTEYENLFPGLKEAFVVEEWVKETHADLWPAKQYPLVTPNEERNVMEEGKDFQPSRSTAQQELDGKPASPTPVIVASHTANKEEKSLLELEVDLDNLELEDIDTTDINLDEDILDD
